Structures can show the parent of a compound that is named as a salt. Some of the results follow. Hit calls seldom repeat between salt and free forms of one compound.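 In K562 cells expressing nanoluciferase-fused kinases, luminescence was recorded at 4 h intervals between 2 and 18 h, normalized as percent of control with DMSO at 100% and a positive control at 0%. A significant (2 sigma) signal drop marks a time point as decreased. The authors' rule for a hit is not shown and takes in more than the number of time points.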
Legend:
Test in all cases: kinase-Nluc reporter destabilization hit call (1 = scored as downregulated) (binary); higher = compound decreases kinase abundance
Conditions in all cases: K562; 2-18 h
IRAK3 = IRAK3 (UniProt Q9Y616)
JAK1 = JAK1 (UniProt P23458)
LCK = LCK (UniProt P06239)
LIMK1 = LIMK1 (UniProt P53667)
LIMK2 = LIMK2 (UniProt P53671)
LMTK2 = LMTK2 (UniProt Q8IWU2)
LYN = LYN (UniProt P07948)
MAP2K1 = MAP2K1 (UniProt Q02750)
MAP2K2 = MAP2K2 (UniProt P36507)
MAP4K2 = MAP4K2 (UniProt Q12851)
MAPK1 = MAPK1 (UniProt P28482)
MAPK4 = MAPK4 (UniProt P31152)
MAPKAPK2 = MAPKAPK2 (UniProt P49137)
MKNK1 = MKNK1 (UniProt Q9BUB5)
NTRK2 = NTRK2 (UniProt Q16620)
NTRK3 = NTRK3 (UniProt Q16288)
PAK4 = PAK4 (UniProt O96013)
PBK = PBK (UniProt Q96KB5)
PDGFRB = PDGFRB (UniProt P09619)
PDK1 = PDK1 (UniProt Q15118)

Sequences of proteins named here, by UniProt entry; tags and fusion partners are left off. A change or cut given only in a name is not applied to a line headed by its entry.
UniProt Q9Y616: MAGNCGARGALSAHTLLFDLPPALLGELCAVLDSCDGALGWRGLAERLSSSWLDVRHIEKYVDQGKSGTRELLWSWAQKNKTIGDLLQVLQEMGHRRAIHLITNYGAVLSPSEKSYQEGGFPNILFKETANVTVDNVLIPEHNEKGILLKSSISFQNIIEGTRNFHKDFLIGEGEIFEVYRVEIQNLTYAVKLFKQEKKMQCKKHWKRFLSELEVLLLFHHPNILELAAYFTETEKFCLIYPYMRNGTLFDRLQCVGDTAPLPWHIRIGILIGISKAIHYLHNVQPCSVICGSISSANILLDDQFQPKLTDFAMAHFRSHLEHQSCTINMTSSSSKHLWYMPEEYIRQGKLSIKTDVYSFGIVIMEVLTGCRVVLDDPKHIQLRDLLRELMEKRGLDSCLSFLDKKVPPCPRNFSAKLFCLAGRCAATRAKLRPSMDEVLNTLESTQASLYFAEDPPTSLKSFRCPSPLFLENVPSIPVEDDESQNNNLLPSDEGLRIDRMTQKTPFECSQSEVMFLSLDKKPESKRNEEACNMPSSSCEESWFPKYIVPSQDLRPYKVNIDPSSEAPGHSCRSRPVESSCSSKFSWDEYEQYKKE
UniProt Q8IWU2: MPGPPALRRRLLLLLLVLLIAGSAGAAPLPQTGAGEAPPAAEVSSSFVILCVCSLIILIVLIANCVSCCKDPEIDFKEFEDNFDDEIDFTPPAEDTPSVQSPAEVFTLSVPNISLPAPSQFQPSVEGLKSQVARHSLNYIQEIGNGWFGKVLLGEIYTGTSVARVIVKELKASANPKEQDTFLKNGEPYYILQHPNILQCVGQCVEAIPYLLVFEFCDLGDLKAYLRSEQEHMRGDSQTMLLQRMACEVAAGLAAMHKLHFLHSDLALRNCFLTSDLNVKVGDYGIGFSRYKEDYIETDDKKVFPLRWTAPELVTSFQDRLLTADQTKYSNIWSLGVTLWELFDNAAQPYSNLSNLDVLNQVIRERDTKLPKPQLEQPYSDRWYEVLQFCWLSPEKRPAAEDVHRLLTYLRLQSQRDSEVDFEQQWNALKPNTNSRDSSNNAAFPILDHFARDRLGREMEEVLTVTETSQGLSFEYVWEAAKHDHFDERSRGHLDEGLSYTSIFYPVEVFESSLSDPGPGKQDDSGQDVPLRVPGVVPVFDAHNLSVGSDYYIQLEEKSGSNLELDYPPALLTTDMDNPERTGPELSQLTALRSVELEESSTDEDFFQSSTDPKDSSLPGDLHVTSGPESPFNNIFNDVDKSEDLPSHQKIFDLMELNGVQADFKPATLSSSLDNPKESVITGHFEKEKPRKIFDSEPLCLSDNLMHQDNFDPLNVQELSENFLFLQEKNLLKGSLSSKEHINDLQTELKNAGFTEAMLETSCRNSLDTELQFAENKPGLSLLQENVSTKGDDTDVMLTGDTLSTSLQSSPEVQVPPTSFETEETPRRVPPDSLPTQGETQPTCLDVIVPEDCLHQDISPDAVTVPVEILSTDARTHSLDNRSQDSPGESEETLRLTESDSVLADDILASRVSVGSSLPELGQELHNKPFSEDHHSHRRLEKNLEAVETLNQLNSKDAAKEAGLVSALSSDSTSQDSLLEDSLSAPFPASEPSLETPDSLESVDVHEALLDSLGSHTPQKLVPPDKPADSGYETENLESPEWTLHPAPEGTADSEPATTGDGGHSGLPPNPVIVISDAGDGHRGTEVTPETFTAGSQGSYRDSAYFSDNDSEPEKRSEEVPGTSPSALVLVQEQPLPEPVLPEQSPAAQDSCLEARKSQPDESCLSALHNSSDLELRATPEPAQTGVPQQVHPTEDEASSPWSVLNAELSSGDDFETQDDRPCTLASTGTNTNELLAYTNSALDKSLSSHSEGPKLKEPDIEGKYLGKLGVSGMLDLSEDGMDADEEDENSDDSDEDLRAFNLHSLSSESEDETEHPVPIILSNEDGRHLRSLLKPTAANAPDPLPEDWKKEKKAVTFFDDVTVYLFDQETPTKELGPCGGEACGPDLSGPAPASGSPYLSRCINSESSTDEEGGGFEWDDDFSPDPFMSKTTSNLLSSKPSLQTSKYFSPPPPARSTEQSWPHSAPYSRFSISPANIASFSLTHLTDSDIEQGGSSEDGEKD
UniProt P07948: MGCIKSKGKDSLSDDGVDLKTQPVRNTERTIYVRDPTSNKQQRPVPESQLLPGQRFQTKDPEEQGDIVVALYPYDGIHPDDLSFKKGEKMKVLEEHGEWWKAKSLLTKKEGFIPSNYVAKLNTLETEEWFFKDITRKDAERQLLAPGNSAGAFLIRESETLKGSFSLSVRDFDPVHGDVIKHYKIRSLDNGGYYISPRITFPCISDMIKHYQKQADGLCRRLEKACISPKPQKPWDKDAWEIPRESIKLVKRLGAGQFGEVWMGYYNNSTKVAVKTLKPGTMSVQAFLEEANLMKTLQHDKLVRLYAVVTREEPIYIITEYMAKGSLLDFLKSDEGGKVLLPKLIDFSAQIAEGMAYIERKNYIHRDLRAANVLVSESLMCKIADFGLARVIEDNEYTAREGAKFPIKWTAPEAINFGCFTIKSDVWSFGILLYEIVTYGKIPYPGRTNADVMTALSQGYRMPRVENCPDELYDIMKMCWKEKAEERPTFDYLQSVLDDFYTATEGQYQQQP
UniProt Q12851: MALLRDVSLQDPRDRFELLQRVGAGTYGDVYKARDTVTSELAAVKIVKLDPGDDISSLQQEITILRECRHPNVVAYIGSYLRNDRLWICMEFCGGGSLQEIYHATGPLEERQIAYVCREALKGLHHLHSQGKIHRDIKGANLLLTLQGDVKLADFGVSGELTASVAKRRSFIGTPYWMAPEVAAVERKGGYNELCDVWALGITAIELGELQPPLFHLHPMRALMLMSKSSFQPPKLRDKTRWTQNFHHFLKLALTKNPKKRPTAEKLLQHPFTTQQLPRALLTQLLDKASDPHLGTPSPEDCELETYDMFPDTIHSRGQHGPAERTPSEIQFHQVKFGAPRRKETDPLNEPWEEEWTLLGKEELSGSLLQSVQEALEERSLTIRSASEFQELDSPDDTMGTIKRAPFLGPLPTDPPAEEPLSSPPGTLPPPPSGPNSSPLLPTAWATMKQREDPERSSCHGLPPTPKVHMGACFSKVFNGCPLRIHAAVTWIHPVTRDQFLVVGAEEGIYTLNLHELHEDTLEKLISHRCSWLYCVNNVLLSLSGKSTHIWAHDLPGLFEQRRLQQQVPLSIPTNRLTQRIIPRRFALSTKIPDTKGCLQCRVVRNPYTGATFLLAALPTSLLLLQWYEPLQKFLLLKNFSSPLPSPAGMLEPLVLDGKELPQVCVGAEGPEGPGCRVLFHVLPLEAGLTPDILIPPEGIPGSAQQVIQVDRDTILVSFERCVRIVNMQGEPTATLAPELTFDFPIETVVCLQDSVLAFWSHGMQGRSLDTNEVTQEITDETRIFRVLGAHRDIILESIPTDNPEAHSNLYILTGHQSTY
UniProt P31152, whole entry: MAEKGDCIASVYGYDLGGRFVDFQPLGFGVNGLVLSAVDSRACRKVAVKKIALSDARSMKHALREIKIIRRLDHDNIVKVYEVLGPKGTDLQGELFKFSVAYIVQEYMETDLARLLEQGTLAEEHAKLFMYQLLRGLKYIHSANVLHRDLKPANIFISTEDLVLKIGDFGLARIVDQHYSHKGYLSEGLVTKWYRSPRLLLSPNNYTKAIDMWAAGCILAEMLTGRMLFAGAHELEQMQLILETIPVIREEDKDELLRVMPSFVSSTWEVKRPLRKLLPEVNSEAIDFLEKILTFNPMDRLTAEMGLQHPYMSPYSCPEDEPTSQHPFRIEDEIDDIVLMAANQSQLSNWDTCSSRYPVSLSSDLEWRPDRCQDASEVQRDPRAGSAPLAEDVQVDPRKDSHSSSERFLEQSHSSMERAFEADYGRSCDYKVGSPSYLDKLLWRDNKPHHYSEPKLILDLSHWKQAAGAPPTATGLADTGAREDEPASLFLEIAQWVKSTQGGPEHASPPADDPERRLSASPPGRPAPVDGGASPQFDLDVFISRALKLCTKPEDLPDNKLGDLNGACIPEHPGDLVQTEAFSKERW
UniProt P49137, whole entry, looked up: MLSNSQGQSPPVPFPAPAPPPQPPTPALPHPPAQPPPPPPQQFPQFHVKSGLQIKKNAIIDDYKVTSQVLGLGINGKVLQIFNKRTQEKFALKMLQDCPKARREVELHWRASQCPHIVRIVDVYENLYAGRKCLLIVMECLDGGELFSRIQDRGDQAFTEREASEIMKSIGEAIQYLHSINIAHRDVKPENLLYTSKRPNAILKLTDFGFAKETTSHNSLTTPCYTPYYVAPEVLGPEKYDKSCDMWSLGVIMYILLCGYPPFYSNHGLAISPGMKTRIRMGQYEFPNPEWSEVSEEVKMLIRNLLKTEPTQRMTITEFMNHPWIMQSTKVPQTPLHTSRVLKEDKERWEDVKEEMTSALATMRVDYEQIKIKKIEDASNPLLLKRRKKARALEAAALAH
UniProt Q16620, whole entry, looked up: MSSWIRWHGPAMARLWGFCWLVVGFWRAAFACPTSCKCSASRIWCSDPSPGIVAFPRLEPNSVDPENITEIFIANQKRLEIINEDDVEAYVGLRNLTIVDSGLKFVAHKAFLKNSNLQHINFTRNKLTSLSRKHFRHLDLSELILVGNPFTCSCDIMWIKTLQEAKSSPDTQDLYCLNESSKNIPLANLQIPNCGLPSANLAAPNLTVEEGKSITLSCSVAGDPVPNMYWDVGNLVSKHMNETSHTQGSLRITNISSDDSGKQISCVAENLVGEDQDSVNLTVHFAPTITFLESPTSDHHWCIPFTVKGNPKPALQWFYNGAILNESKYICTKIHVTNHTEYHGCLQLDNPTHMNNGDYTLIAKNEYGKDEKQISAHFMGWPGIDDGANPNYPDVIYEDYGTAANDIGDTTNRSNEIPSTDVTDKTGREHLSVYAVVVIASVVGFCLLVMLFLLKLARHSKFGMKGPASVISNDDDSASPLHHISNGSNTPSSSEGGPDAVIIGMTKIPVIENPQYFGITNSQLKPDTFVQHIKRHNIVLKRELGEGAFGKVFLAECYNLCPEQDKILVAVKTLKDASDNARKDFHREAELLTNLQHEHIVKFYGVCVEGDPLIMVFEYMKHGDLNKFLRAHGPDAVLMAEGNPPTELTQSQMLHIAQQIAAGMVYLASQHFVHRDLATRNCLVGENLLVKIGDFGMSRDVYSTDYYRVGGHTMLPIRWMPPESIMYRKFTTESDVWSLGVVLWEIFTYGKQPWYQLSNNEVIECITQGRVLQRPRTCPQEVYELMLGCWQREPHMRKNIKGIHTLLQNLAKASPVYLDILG
UniProt O96013: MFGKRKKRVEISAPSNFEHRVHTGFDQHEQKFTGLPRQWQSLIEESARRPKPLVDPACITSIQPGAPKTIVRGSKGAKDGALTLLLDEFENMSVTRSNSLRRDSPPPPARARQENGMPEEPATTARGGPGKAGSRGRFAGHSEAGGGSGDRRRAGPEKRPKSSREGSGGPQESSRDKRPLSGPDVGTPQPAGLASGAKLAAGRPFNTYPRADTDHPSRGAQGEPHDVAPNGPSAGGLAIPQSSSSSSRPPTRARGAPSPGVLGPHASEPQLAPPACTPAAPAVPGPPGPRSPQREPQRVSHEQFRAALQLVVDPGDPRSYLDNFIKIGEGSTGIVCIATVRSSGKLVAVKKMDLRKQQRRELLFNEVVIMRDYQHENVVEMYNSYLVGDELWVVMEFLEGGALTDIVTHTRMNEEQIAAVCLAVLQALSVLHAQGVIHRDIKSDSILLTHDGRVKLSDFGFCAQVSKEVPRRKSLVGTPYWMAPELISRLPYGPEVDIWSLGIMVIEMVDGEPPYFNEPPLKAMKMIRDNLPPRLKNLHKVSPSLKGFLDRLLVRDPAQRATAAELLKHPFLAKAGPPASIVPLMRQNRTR
UniProt Q96KB5: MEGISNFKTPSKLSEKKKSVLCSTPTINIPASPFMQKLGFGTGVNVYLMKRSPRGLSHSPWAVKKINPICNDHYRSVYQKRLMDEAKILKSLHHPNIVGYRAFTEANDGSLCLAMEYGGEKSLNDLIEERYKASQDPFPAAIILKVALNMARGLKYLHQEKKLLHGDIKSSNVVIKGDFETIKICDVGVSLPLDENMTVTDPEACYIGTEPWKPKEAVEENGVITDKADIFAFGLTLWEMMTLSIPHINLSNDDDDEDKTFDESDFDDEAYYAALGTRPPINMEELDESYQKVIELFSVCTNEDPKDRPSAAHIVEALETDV
UniProt Q15118, whole entry, looked up: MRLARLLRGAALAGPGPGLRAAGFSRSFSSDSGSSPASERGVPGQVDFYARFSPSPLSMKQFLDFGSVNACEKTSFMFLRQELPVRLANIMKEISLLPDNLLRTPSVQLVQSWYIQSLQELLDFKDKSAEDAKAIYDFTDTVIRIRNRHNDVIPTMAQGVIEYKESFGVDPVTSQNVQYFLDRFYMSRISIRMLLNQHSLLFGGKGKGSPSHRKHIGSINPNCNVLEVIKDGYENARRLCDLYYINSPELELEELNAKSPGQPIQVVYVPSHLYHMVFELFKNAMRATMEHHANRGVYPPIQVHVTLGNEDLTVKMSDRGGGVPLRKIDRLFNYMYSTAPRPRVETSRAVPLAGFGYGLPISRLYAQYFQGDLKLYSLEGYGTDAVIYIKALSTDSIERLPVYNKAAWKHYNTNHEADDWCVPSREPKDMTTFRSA

Measured: kinase-Nluc reporter destabilization hit call

Cc1cc(Nc2ncnc3ccc(NC4=NC(C)(C)CO4)cc23)ccc1Oc1ccn2ncnc2c1 [Tucatinib] (2.5 µM)
inactive: IRAK3 = 0 | JAK1 = 0 | LCK 0 | LIMK1 = 0 | LIMK2 = 0 | LMTK2 = 0 | LYN 0 | MAP2K1 = 0 | MAP2K2 = 0 | MAP4K2 = 0 | MAPK1 = 0 | MAPK4 = 0 | MAPKAPK2 = 0 | MKNK1 = 0 | NTRK2 = 0 | NTRK3 = 0 | PAK4 = 0 | PBK 0 | PDGFRB 0 | PDK1 = 0

Cc1cc(CN2CCN(c3c(Br)cnc4nc(-c5ccc(N6CCN(C)CC6)cc5)[nH]c34)CC2)no1 (2.5 µM)
inactive: IRAK3 = 0 | JAK1 = 0 | LCK 0 | LIMK1 = 0 | LIMK2 = 0 | LMTK2 = 0 | LYN 0 | MAP2K1 = 0 | MAP2K2 = 0 | MAP4K2 = 0 | MAPK1 = 0 | MAPK4 = 0 | MAPKAPK2 = 0 | MKNK1 = 0 | NTRK2 = 0 | NTRK3 = 0 | PAK4 = 0 | PBK 0 | PDGFRB 0 | PDK1 = 0

NC(=O)c1ccc2[nH]ccc2c1 (10 µM)
inactive: IRAK3 = 0 | JAK1 = 0 | LCK 0 | LIMK1 = 0 | LIMK2 = 0 | LMTK2 = 0 | LYN 0 | MAP2K1 = 0 | MAP2K2 = 0 | MAP4K2 = 0 | MAPK1 = 0 | MAPK4 = 0 | MAPKAPK2 = 0 | MKNK1 = 0 | NTRK2 = 0 | NTRK3 = 0 | PAK4 = 0 | PBK 0 | PDGFRB 0 | PDK1 = 0

O=C(Nc1cn[nH]c1-c1ccccn1)c1nn(C2CCNCC2)cc1Cl (10 µM)
inactive: IRAK3 = 0 | JAK1 = 0 | LCK 0 | LIMK1 = 0 | LIMK2 = 0 | LMTK2 = 0 | LYN 0 | MAP2K1 = 0 | MAP2K2 = 0 | MAP4K2 = 0 | MAPK1 = 0 | MAPK4 = 0 | MAPKAPK2 = 0 | MKNK1 = 0 | NTRK2 = 0 | NTRK3 = 0 | PAK4 = 0 | PBK 0 | PDGFRB 0 | PDK1 = 0

O=C1NC(=O)/C(=C\c2cccc(C(F)(F)F)c2)S1 (2.5 µM)
inactive: IRAK3 = 0 | JAK1 = 0 | LCK 0 | LIMK1 = 0 | LIMK2 = 0 | LMTK2 = 0 | LYN 0 | MAP2K1 = 0 | MAP2K2 = 0 | MAP4K2 = 0 | MAPK1 = 0 | MAPK4 = 0 | MAPKAPK2 = 0 | MKNK1 = 0 | NTRK2 = 0 | NTRK3 = 0 | PAK4 = 0 | PBK 0 | PDGFRB 0 | PDK1 = 0

C=CC(=O)Nc1cccc(Nc2nc(Nc3ccc(N4CCN(C(C)=O)CC4)cc3OC)ncc2C(F)(F)F)c1 [Rociletinib hydrobromide] (10 µM)
inactive: IRAK3 = 0 | JAK1 = 0 | LCK 0 | LIMK1 = 0 | LIMK2 = 0 | LMTK2 = 0 | LYN 0 | MAP2K1 = 0 | MAP2K2 = 0 | MAP4K2 = 0 | MAPK1 = 0 | MAPK4 = 0 | MAPKAPK2 = 0 | MKNK1 = 0 | NTRK2 = 0 | NTRK3 = 0 | PAK4 = 0 | PBK 0 | PDGFRB 0 | PDK1 = 0

NC(=O)c1nnc(N[C@@H]2CCCC[C@@H]2N)nc1Nc1cccc2cc[nH]c12 (10 µM)
inactive: IRAK3 = 0 | JAK1 = 0 | LCK 0 | LIMK1 = 0 | LIMK2 = 0 | LMTK2 = 0 | LYN 0 | MAP2K1 = 0 | MAP2K2 = 0 | MAP4K2 = 0 | MAPK1 = 0 | MAPK4 = 0 | MAPKAPK2 = 0 | MKNK1 = 0 | NTRK2 = 0 | NTRK3 = 0 | PAK4 = 0 | PBK 0 | PDGFRB 0 | PDK1 = 0

CC[C@@H](Oc1nc(Oc2cc(C)cc(-c3cccc(CN)c3)c2)c(F)cc1F)C(=O)O (10 µM)
inactive: IRAK3 = 0 | JAK1 = 0 | LCK 0 | LIMK1 = 0 | LIMK2 = 0 | LMTK2 = 0 | LYN 0 | MAP2K1 = 0 | MAP2K2 = 0 | MAP4K2 = 0 | MAPK1 = 0 | MAPK4 = 0 | MAPKAPK2 = 0 | MKNK1 = 0 | NTRK2 = 0 | NTRK3 = 0 | PAK4 = 0 | PBK 0 | PDGFRB 0 | PDK1 = 0

Reprinted at random: 2 entries already listed.
NC(=O)c1nnc(N[C@@H]2CCCC[C@@H]2N)nc1Nc1cccc2cc[nH]c12 (10 µM)
inactive: IRAK3 = 0 | JAK1 = 0 | LCK 0 | LIMK1 = 0 | LIMK2 = 0 | LMTK2 = 0 | LYN 0 | MAP2K1 = 0 | MAP2K2 = 0 | MAP4K2 = 0 | MAPK1 = 0 | MAPK4 = 0 | MAPKAPK2 = 0 | MKNK1 = 0 | NTRK2 = 0 | NTRK3 = 0 | PAK4 = 0 | PBK 0 | PDGFRB 0 | PDK1 = 0

CC[C@@H](Oc1nc(Oc2cc(C)cc(-c3cccc(CN)c3)c2)c(F)cc1F)C(=O)O (10 µM)
inactive: IRAK3 = 0 | JAK1 = 0 | LCK 0 | LIMK1 = 0 | LIMK2 = 0 | LMTK2 = 0 | LYN 0 | MAP2K1 = 0 | MAP2K2 = 0 | MAP4K2 = 0 | MAPK1 = 0 | MAPK4 = 0 | MAPKAPK2 = 0 | MKNK1 = 0 | NTRK2 = 0 | NTRK3 = 0 | PAK4 = 0 | PBK 0 | PDGFRB 0 | PDK1 = 0

Continuation:

COc1cc(Nc2ncc(F)c(Nc3ccc4c(n3)N(COP(=O)(O)O)C(=O)C(C)(C)O4)n2)cc(OC)c1OC [Fostamatinib Disodium] (10 µM)
inactive: IRAK3 = 0 | JAK1 = 0 | LCK 0 | LIMK1 = 0 | LIMK2 = 0 | LMTK2 = 0 | LYN 0 | MAP2K1 = 0 | MAP2K2 = 0 | MAP4K2 = 0 | MAPK1 = 0 | MAPK4 = 0 | MAPKAPK2 = 0 | MKNK1 = 0 | NTRK2 = 0 | NTRK3 = 0 | PAK4 = 0 | PBK 0 | PDGFRB 0 | PDK1 = 0

C=CC(=O)Nc1cc(Nc2ncc(Cl)c(-c3c[nH]c4ccccc34)n2)c(OC)cc1N(C)CCN(C)C [Mutant EGFR inhibitor] (2.5 µM)
inactive: IRAK3 = 0 | JAK1 = 0 | LCK 0 | LIMK1 = 0 | LIMK2 = 0 | LMTK2 = 0 | LYN 0 | MAP2K1 = 0 | MAP2K2 = 0 | MAP4K2 = 0 | MAPK1 = 0 | MAPK4 = 0 | MAPKAPK2 = 0 | MKNK1 = 0 | NTRK2 = 0 | NTRK3 = 0 | PAK4 = 0 | PBK 0 | PDGFRB 0 | PDK1 = 0

Cc1nc(-c2cn3c(n2)-c2ccc(-c4cnn(C(C)(C)C(N)=O)c4)cc2OCC3)n(C(C)C)n1 [Taselisib] (10 µM)
inactive: IRAK3 = 0 | JAK1 = 0 | LCK 0 | LIMK1 = 0 | LIMK2 = 0 | LMTK2 = 0 | LYN 0 | MAP2K1 = 0 | MAP2K2 = 0 | MAP4K2 = 0 | MAPK1 = 0 | MAPK4 = 0 | MAPKAPK2 = 0 | MKNK1 = 0 | NTRK2 = 0 | NTRK3 = 0 | PAK4 = 0 | PBK 0 | PDGFRB 0 | PDK1 = 0

CN1CCC(c2cc(-c3ccncc3)c(-c3ccc(F)cc3)[nH]2)CC1 (10 µM)
inactive: IRAK3 = 0 | JAK1 = 0 | LCK 0 | LIMK1 = 0 | LIMK2 = 0 | LMTK2 = 0 | LYN 0 | MAP2K1 = 0 | MAP2K2 = 0 | MAP4K2 = 0 | MAPK1 = 0 | MAPK4 = 0 | MAPKAPK2 = 0 | MKNK1 = 0 | NTRK2 = 0 | NTRK3 = 0 | PAK4 = 0 | PBK 0 | PDGFRB 0 | PDK1 = 0

Cc1cccc(-c2[nH]ncc2-c2ccc(F)c(-c3cnn(CCO)c3)c2)n1 (10 µM)
inactive: IRAK3 = 0 | JAK1 = 0 | LCK 0 | LIMK1 = 0 | LIMK2 = 0 | LMTK2 = 0 | LYN 0 | MAP2K1 = 0 | MAP2K2 = 0 | MAP4K2 = 0 | MAPK1 = 0 | MAPK4 = 0 | MAPKAPK2 = 0 | MKNK1 = 0 | NTRK2 = 0 | NTRK3 = 0 | PAK4 = 0 | PBK 0 | PDGFRB 0 | PDK1 = 0

CCc1cc2c(cc1N1CCC(N3CCOCC3)CC1)C(C)(C)c1[nH]c3cc(C#N)ccc3c1C2=O [Alectinib] (10 µM)
inactive: IRAK3 = 0 | JAK1 = 0 | LCK 0 | LIMK1 = 0 | LIMK2 = 0 | LMTK2 = 0 | LYN 0 | MAP2K1 = 0 | MAP2K2 = 0 | MAP4K2 = 0 | MAPK1 = 0 | MAPK4 = 0 | MAPKAPK2 = 0 | MKNK1 = 0 | NTRK2 = 0 | NTRK3 = 0 | PAK4 = 0 | PBK 0 | PDGFRB 0 | PDK1 = 0

CCc1c(C(=O)NNC(=O)C(O)c2cc(F)cc(F)c2)ccc(O)c1C (stereo not given) (10 µM)
inactive: IRAK3 = 0 | JAK1 = 0 | LCK 0 | LIMK1 = 0 | LIMK2 = 0 | LMTK2 = 0 | LYN 0 | MAP2K1 = 0 | MAP2K2 = 0 | MAP4K2 = 0 | MAPK1 = 0 | MAPK4 = 0 | MAPKAPK2 = 0 | MKNK1 = 0 | NTRK2 = 0 | NTRK3 = 0 | PAK4 = 0 | PBK 0 | PDGFRB 0 | PDK1 = 0

OCCn1cc(-c2ccc3c(c2)CC/C3=N\O)c(-c2ccncc2)n1 (10 µM)
inactive: IRAK3 = 0 | JAK1 = 0 | LCK 0 | LIMK1 = 0 | LIMK2 = 0 | LMTK2 = 0 | LYN 0 | MAP2K1 = 0 | MAP2K2 = 0 | MAP4K2 = 0 | MAPK1 = 0 | MAPK4 = 0 | MAPKAPK2 = 0 | MKNK1 = 0 | NTRK2 = 0 | NTRK3 = 0 | PAK4 = 0 | PBK 0 | PDGFRB 0 | PDK1 = 0

Nc1ccc(-c2cnc(N)c(-c3ccc(Cl)cc3)c2)cn1 (10 µM)
inactive: IRAK3 = 0 | JAK1 = 0 | LCK 0 | LIMK1 = 0 | LIMK2 = 0 | LMTK2 = 0 | LYN 0 | MAP2K1 = 0 | MAP2K2 = 0 | MAP4K2 = 0 | MAPK1 = 0 | MAPK4 = 0 | MAPKAPK2 = 0 | MKNK1 = 0 | NTRK2 = 0 | NTRK3 = 0 | PAK4 = 0 | PBK 0 | PDGFRB 0 | PDK1 = 0

CCN1CCN(Cc2ccc(-c3cc4c(N[C@H](C)c5ccccc5)ncnc4[nH]3)cc2)CC1 (2.5 µM)
inactive: IRAK3 = 0 | JAK1 = 0 | LCK 0 | LIMK1 = 0 | LIMK2 = 0 | LMTK2 = 0 | LYN 0 | MAP2K1 = 0 | MAP2K2 = 0 | MAP4K2 = 0 | MAPK1 = 0 | MAPK4 = 0 | MAPKAPK2 = 0 | MKNK1 = 0 | NTRK2 = 0 | NTRK3 = 0 | PAK4 = 0 | PBK 0 | PDGFRB 0 | PDK1 = 0

Reference: the supplement of paper PMC12823440, “Inhibitors supercharge kinase turnover through native proteolytic circuits” (Nature, 2025)
